Measured values: paper PMC7181751
These are yes or no findings as the source states them, for the method shown. In cells and extracts the contact can be indirect.

Amino acid sequences for entries named in this document (tags omitted). Residues count along the entry.
UniProt P56726, residues 33-793: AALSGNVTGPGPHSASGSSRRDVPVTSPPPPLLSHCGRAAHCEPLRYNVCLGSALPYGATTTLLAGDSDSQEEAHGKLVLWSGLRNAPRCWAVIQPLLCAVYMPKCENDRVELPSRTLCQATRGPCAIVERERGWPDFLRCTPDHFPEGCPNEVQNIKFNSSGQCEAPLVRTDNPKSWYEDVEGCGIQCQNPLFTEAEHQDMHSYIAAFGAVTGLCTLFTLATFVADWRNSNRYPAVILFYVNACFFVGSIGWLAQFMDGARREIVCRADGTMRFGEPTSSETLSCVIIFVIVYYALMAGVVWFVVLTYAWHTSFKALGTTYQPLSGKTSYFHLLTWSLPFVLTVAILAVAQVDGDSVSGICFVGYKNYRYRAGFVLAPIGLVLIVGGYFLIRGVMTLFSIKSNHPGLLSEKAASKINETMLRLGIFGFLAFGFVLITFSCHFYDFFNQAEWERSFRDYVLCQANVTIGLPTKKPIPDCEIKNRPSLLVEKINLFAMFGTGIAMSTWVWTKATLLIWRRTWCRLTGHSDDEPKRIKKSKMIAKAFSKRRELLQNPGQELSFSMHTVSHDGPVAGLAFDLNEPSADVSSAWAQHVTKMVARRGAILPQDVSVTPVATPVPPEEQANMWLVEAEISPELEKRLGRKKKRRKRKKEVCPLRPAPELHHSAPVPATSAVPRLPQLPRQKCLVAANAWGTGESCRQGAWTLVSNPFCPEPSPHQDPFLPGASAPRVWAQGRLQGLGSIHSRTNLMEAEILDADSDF

What was measured:
[1] = molecular target: T1, Boc (bioregional Cdon-binding protein), endogenous (mouse (endogenous in NIH3T3)) (UniProt Q6AZB0); assay: co-IP; NIH3T3/Cas9 Ptch1 KO cells transfected with mouse Ptch1, stimulated with Shh for 24 h; IP of Ptch1 and reciprocal IP of endogenous Boc, Western blot
T1 sequence: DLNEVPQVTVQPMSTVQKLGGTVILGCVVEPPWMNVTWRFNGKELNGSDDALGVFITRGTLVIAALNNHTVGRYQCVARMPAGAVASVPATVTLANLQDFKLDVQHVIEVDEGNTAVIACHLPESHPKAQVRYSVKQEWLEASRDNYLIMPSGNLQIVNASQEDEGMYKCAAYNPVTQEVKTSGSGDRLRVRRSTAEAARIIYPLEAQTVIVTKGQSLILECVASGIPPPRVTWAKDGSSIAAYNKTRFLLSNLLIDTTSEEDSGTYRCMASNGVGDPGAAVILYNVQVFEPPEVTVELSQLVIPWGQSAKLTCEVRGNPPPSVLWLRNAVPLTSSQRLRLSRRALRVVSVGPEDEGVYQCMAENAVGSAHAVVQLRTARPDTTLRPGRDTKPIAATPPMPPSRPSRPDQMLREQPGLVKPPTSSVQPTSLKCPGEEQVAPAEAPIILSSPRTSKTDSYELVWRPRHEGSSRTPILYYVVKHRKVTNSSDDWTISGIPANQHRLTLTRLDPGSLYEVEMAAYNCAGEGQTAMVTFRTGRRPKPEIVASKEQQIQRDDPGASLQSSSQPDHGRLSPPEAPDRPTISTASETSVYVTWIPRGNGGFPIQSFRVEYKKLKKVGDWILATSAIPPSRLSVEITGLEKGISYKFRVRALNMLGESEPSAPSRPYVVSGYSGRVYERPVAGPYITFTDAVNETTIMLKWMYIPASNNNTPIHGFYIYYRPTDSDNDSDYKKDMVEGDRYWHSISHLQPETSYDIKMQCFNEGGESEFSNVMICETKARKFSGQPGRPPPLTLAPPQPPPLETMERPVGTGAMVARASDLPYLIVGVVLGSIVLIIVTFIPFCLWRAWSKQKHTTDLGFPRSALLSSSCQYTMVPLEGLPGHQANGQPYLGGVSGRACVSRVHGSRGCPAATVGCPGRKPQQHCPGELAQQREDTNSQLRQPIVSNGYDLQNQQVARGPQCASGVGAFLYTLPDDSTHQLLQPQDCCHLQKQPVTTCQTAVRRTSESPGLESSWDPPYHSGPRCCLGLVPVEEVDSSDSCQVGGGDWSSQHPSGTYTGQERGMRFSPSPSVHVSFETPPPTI

[2] = molecular target: T2, mouse Ptch1 (pcDNA3-mPtch1) (mouse) (UniProt Q61115); assay: as above
T2 sequence: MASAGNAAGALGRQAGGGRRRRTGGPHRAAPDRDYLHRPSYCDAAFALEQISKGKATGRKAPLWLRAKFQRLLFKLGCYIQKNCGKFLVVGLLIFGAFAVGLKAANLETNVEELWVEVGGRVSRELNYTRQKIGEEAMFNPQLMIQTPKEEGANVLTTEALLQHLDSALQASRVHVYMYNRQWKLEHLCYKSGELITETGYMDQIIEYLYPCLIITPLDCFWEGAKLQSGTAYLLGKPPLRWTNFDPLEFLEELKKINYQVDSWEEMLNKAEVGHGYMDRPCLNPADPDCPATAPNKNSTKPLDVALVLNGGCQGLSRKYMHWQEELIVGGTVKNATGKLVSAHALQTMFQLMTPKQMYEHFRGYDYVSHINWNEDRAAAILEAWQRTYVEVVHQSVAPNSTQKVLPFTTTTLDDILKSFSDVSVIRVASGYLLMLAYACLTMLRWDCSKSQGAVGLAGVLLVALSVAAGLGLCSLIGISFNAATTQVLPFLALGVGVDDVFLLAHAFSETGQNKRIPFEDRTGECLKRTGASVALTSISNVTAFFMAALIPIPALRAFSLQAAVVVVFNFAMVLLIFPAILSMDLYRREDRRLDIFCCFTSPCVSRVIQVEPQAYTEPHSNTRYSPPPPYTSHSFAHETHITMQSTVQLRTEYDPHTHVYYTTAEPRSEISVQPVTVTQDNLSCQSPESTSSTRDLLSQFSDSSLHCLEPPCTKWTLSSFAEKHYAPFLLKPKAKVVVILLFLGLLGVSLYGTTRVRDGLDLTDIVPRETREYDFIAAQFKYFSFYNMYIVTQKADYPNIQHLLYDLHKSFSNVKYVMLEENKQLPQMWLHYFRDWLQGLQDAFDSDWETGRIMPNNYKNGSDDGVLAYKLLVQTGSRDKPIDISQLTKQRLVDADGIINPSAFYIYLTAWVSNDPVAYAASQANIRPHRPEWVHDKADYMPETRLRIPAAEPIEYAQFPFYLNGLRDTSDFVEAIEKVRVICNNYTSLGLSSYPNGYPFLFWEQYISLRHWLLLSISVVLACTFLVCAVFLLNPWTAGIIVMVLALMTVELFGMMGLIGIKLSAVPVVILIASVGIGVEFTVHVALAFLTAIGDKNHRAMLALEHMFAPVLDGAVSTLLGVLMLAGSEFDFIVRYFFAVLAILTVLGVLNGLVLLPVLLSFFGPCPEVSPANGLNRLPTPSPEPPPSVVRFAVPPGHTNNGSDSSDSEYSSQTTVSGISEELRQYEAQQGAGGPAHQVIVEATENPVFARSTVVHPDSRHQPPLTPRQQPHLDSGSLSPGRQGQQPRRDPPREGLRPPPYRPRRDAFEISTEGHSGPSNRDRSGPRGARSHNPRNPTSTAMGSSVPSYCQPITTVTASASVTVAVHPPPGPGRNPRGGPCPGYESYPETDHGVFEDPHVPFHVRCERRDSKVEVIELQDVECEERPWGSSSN

In the case of “Smoothened (Smo), endogenous (from UniProt P56726 33-793) (receptor)”, the binding [1] is reported as “no binding (condition: after Shh for 24 h)” and the binding [2] is reported as “no binding (condition: after Shh for 24 h)”.
